Here are results for 1 sequence from US20050250106.

The subject of the series is NF-kB p50 (p50/p65 heterodimer). Put plainly: EMSA. Conditions: lysate of TNF-alpha stimulated HeLa/293 cells; 20 mM Tris pH 8, 200 mM KCl, 10 mM MgCl2, RT 15 min (binding buffer stock); protein in an extract; label: 5'-32P.

Where cells or extracts were used, other partners may take part.

For the sequence “GCCATGGGGGGATCCCCGAAGTCC (double strand) [NF-kB EMSA probe]”, the binding result was “binds”.
